Where “and” joins values, the source holds several entries; their conditions need not be identical. Equal entries are not always repeated. Some of the results follow. For some assays here: Construct or isoform of the protein are uncertain.

What all share (test): protein microarray (ProtoArray v5.0), streptavidin-Alexa Fluor 647
Common to all, as to details: 3'-biotin; 20 mM Tris (pH 7.5), 5 mM MgCl2, 100 mM KCl, 0.1% Tween-20, A/T-rich and random oligonucleotide blockers; temperature not stated; high values mean tight binding

In assay [1] the test system is RAB4A (human).
For assay [2], the system named is RAB7B (human).
The target in assay [3] is T1, RAB9A (UniProt P51151).
T1 sequence: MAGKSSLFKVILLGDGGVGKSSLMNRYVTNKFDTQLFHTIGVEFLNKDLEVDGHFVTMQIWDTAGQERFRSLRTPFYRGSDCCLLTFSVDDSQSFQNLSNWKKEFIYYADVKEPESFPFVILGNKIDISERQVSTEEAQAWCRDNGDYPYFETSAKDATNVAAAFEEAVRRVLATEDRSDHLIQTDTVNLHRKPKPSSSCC

For assay [4], the system named is RABEP2 (human).
Assay [5] has as its system RABEPK (human).
Assay [6] concerns RABL2B (human).
Assay [7] concerns RABL4 (human).
Assay [8] relates to RABL5 (human).
The test system of assay [9] is RAD54B (human).
Assay [10] deals with RAG1AP1 (human).
Assay [11] has as its system RALA (human).
In assay [12] the test system is RAMP3 (human).
The subject of assay [13] is RANGAP1 (human).
In assay [14] the test system is RAP1A (human).
Assay [15] has as its system RAP1B (human).
For assay [16], the system named is RAP1GDS1 (human).
Assay [17] concerns RAP2B (human).
Assay [18] has as its system RASGRP3 (human).
For assay [19], the system named is RASSF5 (human).
Assay [20] addresses T2, RBED1 (UniProt Q96FG2).
T2 sequence: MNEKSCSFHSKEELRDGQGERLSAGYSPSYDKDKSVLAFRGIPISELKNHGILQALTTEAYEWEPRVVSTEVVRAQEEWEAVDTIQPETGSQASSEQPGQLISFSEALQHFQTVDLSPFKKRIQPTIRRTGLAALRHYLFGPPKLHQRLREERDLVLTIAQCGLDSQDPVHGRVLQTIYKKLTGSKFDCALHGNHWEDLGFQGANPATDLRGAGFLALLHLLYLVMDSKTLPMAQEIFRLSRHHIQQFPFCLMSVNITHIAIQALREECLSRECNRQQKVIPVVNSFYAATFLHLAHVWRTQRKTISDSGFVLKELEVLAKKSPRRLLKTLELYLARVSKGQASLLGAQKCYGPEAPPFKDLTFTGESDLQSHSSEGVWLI

On to “GGGAGGCTGAGGCAGG [G4-1 biotinylated (PQS2)]”, for which the binding signal is -0.339 z-score in assay [1]; -0.324 z-score and -0.306 z-score in assay [2]; -0.35 z-score in [3]; -0.331 z-score in [4]; -0.289 z-score in assay [5]; -0.266 z-score and -0.328 z-score in assay [6]. In addition, the binding signal was -0.305 z-score in assay [7]; -0.335 z-score and -0.35 z-score in assay [8]; -0.326 z-score in [9]; -0.302 z-score in assay [10]; -0.277 z-score in [11]; -0.275 z-score in assay [12]. For the same sequence, the binding signal in assay [13] was -0.332 z-score; in assay [14] it was -0.308 z-score; in [15] it was -0.305 z-score; in assay [16], -0.355 z-score and -0.371 z-score and -0.361 z-score; in assay [17], -0.307 z-score; in assay [18], -0.312 z-score. The binding signal in [19] was -0.337 z-score; in [20], -0.321 z-score.
